Reference: patent EP0989983B1 (SCHERING CORPORATION, priority 1997, dated 1998)
Not every entry of the source has a single result; some have several. Only these are listed. The source may hold further records. The values listed for one entry do not match, cause unknown; dose, time, organism, isomer or construct need not be as stated for each record.

By UniProt entry, the sequences of proteins in these tests, tags left out.
UniProt P49356, whole entry: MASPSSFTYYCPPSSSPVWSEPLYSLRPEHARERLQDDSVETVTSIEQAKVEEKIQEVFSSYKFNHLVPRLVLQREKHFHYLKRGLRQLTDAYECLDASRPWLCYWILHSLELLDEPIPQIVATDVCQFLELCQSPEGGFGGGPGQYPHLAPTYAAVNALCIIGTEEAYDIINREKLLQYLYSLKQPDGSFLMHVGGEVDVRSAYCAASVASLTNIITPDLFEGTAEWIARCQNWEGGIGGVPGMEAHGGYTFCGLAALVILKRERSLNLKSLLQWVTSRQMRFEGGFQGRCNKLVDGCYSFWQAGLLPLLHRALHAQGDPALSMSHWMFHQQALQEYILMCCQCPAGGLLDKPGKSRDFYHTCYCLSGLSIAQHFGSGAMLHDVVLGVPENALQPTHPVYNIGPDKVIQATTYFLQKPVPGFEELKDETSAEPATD
UniProt P53610, whole entry: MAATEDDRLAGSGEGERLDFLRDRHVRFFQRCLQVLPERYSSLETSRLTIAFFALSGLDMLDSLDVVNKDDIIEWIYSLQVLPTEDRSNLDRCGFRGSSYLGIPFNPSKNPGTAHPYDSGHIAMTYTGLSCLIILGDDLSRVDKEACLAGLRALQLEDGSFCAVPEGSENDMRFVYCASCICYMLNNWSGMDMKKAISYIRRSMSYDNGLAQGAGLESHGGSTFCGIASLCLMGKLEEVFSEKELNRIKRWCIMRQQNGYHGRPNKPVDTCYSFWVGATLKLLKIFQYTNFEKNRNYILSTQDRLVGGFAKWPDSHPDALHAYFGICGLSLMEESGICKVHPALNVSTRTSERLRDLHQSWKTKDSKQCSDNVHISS

Legend:
[1] = biological target: farnesyl protein transferase (Homo sapiens, UniProt P49354+P49356); test: FPT IC50, inhibition of farnesyl protein transferase, in vitro enzyme assay (procedure of WO 95/10516); conditions: read-out: FPT C50, several values in a cell are repeat determinations
COS Cell = COS Cell IC50 (Cell-Based Assay, procedure of WO 95/10516); conditions: read-out: COS Cell IC50, several values in a cell are repeat determinations
Human tumor cells = test: Soft Agar Assay (anchorage-independent growth, colony count after MTT staining); conditions: read-out: Soft Agar IC50; colony outgrowth 10-16 days at 37°C in 0.3% agarose
Protocol: Anchorage-independent growth is a characteristic of tumorigenic cell lines. Human tumor cells are suspended in growth medium containing 0.3% agarose and an indicated concentration of a farnesyl transferase inhibitor. The solution is overlayed onto growth medium solidified with 0.6% agarose containing the same concentration of farnesyl transferase inhibitor as the top layer. After the top layer is solidified, plates are incubated for 10-16 days at 37°C under 5% CO2 to allow colony outgrowth. After incubation, the colonies are stained by overlaying the agar with a solution of MTT (3-[4,5-dimethylthiazol-2-yl]-2,5-diphenyltetrazolium bromide, Thiazolyl blue) (1 mg/mL in PBS). Colonies can be counted and the IC50's can be determined.

[2] = biological target: geranylgeranyl protein transferase (Rattus norvegicus, UniProt P53610+Q04631); test: GGPT IC50, inhibition of geranylgeranyl protein transferase, in vitro enzyme assay (procedure of WO 95/10516); conditions: read-out: GGPTase IC50
Protocol: FPT IC50 (inhibition of farnesyl protein transferase, in vitro enzyme assay). and COS Cell IC50 (Cell-Based Assay) were determined following the assay procedures described in WO 95/10516, published April 20, 1995. GGPT IC50 (inhibition of geranylgeranyl protein transferase, in vitro enzyme assay), Cell Mat Assay, and anti-tumor activity (in vivo anti-tumor studies) could be determined by the assay procedures described in WO 95/10516. The disclosure of WO 95/10516 is incorporated herein by reference thereto.

IC50 [1]	IC50 (Human tumor cells)	IC50 [2]	SMILES	IC50 (COS Cell)
6.7 nM, 7.2 nM, 2.9 nM			CCCCC(=O)N1CCN(C2c3ncc(Br)cc3CCc3cc(Cl)cc(Br)c32)CC1C(=O)NCc1cccnc1 (single isomer, unassigned) [256]	
	50 nM to 100 nM and 174 nM		CC(C)CC(=O)N1CCN(C2c3ccc(Cl)cc3CCc3cc(Br)cnc32)CC1C(=O)NCc1cccnc1 (stereo not drawn)	10 nM to 100 nM and 50 nM
			CN(Cc1cccnc1)C(=O)C1CN(C2c3ccc(Cl)cc3CCc3cc(Br)cnc32)CCN1C(=O)CCC1CCCCC1 (stereo not drawn)	1 µM and 100 nM
19, 22, 23, 11, 24 nM		13 µM and 79 µM	COCCC(=O)N1CCN(C2c3ccc(Cl)cc3CCc3cc(Br)cnc32)CC1C(=O)NCc1cccnc1 (stereo not drawn)	
23 nM, 11 nM, 7.6 nM			O=C(NCc1cccnc1)C1CN(C2c3ccc(Cl)cc3CCc3cc(Br)cnc32)CCN1C(=O)NC1CCCC1 (stereo not drawn)	
22, 12, 28, 16 nM			O=C(NCc1cccnc1)C1CN(C2c3ccc(Cl)cc3CCc3cc(Br)cnc32)CCN1C(=O)CCC1CCCCC1 (stereo not drawn)	10 nM to 100 nM and 25 nM to 50 nM
			CCCCC(=O)N1CCN(C2c3ccc(Cl)cc3CCc3cc(Br)cnc32)CC1C(=O)Nc1cccnc1 (stereo not drawn)	50 nM to 100 nM and 127 nM
	52 nM and 5.4 nM		O=C(NCCc1c[nH]cn1)C1CN(C2c3ccc(Cl)cc3CCc3cc(Br)cnc32)CCN1C(=O)NC1CCCCC1 (stereo not drawn) [Compound 227]	16 nM and 4 nM
